Measurements reported in patent US6800434 (dated 2004).
*: point of attachment. OtBu = CC(C)(C)O*

test: general procedure: peptide synthesis; 2-chlorotrityl chloride resin (substrates); settings: coupling step

Question: For “Ac-Glu(OtBu)-Glu(OtBu)-Val-Val-Pro-nVal-(CHOH)-CONH2”, which step yield is on record?
Answer: The step yield was 68%.

Question: For “Ac-Glu(OtBu)-Glu(OtBu)-Val-Val-Pro-nVal(CHOH)-OEt”, which step yield is on record?
Answer: The step yield was 27.5%.

Question: For “Ac-Glu(OtBu)-Glu(OtBu)-Val-Val-Pro-nVal(CHOH)-Gly-Oallyl”, which step yield is on record?
Answer: Its step yield is 91%.

same assay, conditions: late stage modification step

Question: Which step yield does the source give for “Ac-Glu(OtBu)-Glu(OtBu)-Val-Val-Pro-nVal(CO)-Gly-Oallyl” here?
Answer: The step yield was 79%.

Question: Which step yield does the source give for “Ac-Glu(OtBu)-Glu(OtBu)-Val-Val-Pro-nVal(CHOH)-Carboxylic Acid” here?
Answer: Its step yield is 82.2%.

Question: With “Ac-Glu-Glu-Val-Val-Pro-nVal(CO)-Gly-allylamide” as the substance, how does the step yield read?
Answer: The step yield was 28.5%.

Question: For Ac-E(OtBu)E(OtBu)VV-OH, which step yield is on record?
Answer: The step yield was 93% yield.

Question: For “Ac-Glu-Glu-Val-Val-Pro-nVal(CO)-Carboxylic Acid”, which step yield is on record?
Answer: Its step yield is 27.4%.

Question: Which step yield does the source give for “Ac-Glu(OtBu)-Glu(OtBu)-Val-Val-Pro-nVal(CO)-Gly-allylamide” here?
Answer: The step yield was 74.4%.

Question: Which step yield does the source give for “Ac-Glu-Glu-Val-Val-Pro-nVal(CO)-Gly-Oallyl” here?
Answer: The step yield was 24%.

Question: For “Ac-Glu(OtBu)-Glu(OtBu)-Val-Val-Pro-nVal-(CO)-CONH2”, which step yield is on record?
Answer: The step yield was 53%.

Question: With Ac-Glu-Glu-Val-Val-Pro-nVal-(CO)-CONH2 as the substance, how does the step yield read?
Answer: The step yield was 10%.

Question: Which step yield does the source give for “Ac-Glu(OtBu)-Glu(OtBu)-Val-Val-Pro-nVal(CHOH)-Gly-OH” here?
Answer: The step yield was 26%.

same assay, conditions: whole synthesis

Question: With Ac-E(OtBu)E(OtBu)VVP-OH as the substance, how does the isolated yield read?
Answer: Its isolated yield is 65%.
